For at least one compound, name, drawing or mass did not settle the structure.
Tested on: FRAP1
Experiment: Phospho-Akt1 (Ser473) cellular assay
Format: cell-based, human
Conditions: anti-phospho Akt1 (Ser473) versus anti-phospho Akt (Thr308) assays, Hek 293 cells
Protocol: In this cellular assay, compounds were tested for their ability to inhibit Braf, by measuring the phosphorylation of Mek1, a direct kinase substrate of Braf. A375 cells expressing the constitutively active Braf V600E mutation were plated at a density of 3e5 cells/mL in a 10 cm plate and transfected with expression plasmid encoding detectable protein (16 μg) in 1 mL OPTI-MEM buffer (GIBCO/Invitrogen) with 40 μL Lipofectamine 2000 (Invitrogen) and incubated at 37° C. for 18-22 h. On the following day, media was removed and cells washed with PBS, trypsinized then quenched with M3 media (DMEM containing 10% FBS). Cells were counted and resuspended in M3 complete media to a density of […] and then plated at 50,000 cells/well/100 μL into a 96-well plate and incubated at 37° C. for 3h. Media was then removed and starvation media (0.5% FBS/DMEM) was added to the wells and allowed to incubate overnight. […]
As shown in the diagram in FIG. 2, the PIK3CA kinase mediates signaling through two separate pathways, e.g., by direct activation of the kinase substrates FRAP1 (the kinase domain of mTOR), or other less-studied kinases known as “PDK2” in the literature and PDPK1, both of which in turn phosphorylate Akt. […] A binding assay using anti-total Akt1 antibody was also run in parallel to normalize the amount of measured phospho-Akt1 across wells.

COC[C@H]1OC(=O)c2coc3c2[C@@]1(C)C1=C(C3=O)[C@@H]2CCC(=O)[C@@]2(C)C[C@H]1OC(C)=O [wortmannin]
IC50 through the FRAP1 pathway compared with the PDPK1 pathway: nearly equipotent IC50s
